Experimental data published in patent US20240076315A1, “KHL POLYPEPTIDE, AND USE THEREOF IN PREPARATION OF TABP-EIC CELL” (priority 2021, published 2024).
Results are given in words; binding and its absence hold for the method and conditions named. Some binding calls cover weakened binding; strength is not graded here.

By UniProt entry, the sequences of proteins in these tests, tags left out. Residues count along the entry.
UniProt Q04609, residues 44-750: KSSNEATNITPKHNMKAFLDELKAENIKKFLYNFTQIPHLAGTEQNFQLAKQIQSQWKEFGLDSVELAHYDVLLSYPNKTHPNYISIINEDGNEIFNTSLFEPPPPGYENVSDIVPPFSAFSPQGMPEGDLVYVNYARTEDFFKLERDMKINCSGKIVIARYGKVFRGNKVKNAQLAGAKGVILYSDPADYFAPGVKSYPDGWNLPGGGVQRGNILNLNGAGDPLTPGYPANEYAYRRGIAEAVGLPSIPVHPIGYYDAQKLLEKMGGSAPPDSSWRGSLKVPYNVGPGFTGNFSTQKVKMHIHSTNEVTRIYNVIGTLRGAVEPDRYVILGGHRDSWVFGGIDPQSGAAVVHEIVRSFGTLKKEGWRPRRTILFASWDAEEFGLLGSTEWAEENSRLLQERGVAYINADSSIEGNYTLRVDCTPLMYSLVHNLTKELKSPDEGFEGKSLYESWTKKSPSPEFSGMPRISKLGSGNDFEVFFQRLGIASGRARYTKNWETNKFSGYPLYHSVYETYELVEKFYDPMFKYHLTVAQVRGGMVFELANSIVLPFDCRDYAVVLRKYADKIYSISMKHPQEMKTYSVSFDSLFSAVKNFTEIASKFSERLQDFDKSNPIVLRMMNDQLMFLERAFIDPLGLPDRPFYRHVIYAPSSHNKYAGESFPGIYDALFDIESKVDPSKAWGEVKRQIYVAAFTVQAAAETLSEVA

Target: PSMA (Prostate Specific Membrane Antigen) (UniProt Q04609)
Test: phage display panning, Ph.D.-12 peptide library, three rounds on coated target

Binder: KHLHYHSSVRYG [peptide KHL]
- binding: binds
